The values that follow are results of earlier work, collected in PMC6017732, “Identification and Characterizations of Novel, Selective Histone Methyltransferase SET7 Inhibitors by Scaffold Hopping- and 2D-Molecular Fingerprint-Based Similarity Search” (Molecules : A Journal of Synthetic Chemistry and Natural …, 2018).

As a reminder, the pIC50 is −log10 of the IC50, conventionally taken in molar units.

pIC50: −log10 of the molar value.

The subject of this data set is SET7. The note with it: cited from earlier work.

For `CN1CCC(=C2c3ccccc3C=Cc3ccccc32)CC1` [Cyproheptadine], the pIC50 is 6.00.
